According to PubChem BioAssay AID485313 (National Center for Advancing Translational Sciences (NCATS), 2010):
Screen size: about 320,000 compounds; about 7,600 (2.4%) were called active. Only results without a clear call are listed here; the source files them as inconclusive. Calls follow the shape of the dose curve; as a rule, active = well fitted activation curve with a large enough effect; inconclusive = small, poorly fitted or top-dose-only effect; inactive = no such curve, though single readings can be large or run the other way.

Assay: qHTS Assay for NPC1 Promoter Activators; also: nearly all actives have a fitted effect of over 60% in size
Details: Huh7 NPC1 promoter luciferase reporter, 24 h
Potency is read from the fitted curve at half-maximal effect.

Compound | Potency
Cc1nc2ccc3ccccc3c2o1.O=[N+]([O-])c1cc([N+](=O)[O-])c(O)c([N+](=O)[O-])c1 | inconclusive: 3.55 µM
